Experimental data as given in paper PMC7226812.

Sequences of proteins named here, by UniProt entry; tags and fusion partners are left off. A change or cut given only in a name is not applied to a line headed by its entry. Residues count along the entry.
UniProt Q5TAQ9: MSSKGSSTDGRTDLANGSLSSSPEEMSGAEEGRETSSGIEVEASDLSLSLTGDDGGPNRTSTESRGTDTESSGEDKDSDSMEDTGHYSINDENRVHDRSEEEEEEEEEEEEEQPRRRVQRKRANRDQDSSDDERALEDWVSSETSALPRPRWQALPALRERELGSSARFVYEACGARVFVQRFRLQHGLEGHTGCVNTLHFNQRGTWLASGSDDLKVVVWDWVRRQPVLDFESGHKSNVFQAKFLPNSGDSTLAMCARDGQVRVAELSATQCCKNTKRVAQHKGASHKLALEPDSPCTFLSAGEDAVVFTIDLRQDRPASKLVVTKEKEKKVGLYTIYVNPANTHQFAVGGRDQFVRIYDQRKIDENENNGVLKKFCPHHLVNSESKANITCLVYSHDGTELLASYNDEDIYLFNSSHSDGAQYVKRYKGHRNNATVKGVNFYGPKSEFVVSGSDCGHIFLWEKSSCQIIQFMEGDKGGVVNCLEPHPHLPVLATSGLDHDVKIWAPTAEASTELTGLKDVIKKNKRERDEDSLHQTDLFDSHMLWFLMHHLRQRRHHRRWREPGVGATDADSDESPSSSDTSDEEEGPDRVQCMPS
UniProt Q13619: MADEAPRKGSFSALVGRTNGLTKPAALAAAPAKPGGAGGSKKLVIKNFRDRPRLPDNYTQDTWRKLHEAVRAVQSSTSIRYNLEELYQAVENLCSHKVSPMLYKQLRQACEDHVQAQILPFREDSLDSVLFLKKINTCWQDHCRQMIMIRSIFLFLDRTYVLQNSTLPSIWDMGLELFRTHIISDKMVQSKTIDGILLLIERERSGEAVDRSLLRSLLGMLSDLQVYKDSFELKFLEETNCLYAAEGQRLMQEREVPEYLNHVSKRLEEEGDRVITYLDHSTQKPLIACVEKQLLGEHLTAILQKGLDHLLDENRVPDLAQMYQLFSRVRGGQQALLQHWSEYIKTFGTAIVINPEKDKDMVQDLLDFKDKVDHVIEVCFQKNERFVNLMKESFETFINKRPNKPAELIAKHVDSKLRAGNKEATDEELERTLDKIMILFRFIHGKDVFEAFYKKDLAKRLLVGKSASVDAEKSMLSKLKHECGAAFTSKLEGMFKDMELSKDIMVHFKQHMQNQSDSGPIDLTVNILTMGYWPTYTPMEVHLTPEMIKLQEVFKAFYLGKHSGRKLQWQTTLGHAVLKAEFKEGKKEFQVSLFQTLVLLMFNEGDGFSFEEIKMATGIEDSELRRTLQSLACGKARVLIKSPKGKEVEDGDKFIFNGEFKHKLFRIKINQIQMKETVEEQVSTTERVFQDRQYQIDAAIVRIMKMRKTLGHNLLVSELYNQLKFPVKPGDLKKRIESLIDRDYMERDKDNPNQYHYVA
UniProt Q96SW2: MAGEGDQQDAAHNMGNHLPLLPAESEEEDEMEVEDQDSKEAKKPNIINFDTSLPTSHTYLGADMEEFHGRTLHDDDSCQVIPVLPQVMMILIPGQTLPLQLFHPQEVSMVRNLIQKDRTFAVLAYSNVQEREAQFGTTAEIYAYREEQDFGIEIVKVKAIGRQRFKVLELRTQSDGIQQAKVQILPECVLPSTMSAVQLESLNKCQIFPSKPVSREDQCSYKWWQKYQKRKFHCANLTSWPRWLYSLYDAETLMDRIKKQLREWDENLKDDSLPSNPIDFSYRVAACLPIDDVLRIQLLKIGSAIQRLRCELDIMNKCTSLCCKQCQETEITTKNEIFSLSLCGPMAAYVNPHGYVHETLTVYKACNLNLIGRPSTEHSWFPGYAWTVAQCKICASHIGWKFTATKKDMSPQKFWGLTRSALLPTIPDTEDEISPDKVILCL
UniProt Q16531: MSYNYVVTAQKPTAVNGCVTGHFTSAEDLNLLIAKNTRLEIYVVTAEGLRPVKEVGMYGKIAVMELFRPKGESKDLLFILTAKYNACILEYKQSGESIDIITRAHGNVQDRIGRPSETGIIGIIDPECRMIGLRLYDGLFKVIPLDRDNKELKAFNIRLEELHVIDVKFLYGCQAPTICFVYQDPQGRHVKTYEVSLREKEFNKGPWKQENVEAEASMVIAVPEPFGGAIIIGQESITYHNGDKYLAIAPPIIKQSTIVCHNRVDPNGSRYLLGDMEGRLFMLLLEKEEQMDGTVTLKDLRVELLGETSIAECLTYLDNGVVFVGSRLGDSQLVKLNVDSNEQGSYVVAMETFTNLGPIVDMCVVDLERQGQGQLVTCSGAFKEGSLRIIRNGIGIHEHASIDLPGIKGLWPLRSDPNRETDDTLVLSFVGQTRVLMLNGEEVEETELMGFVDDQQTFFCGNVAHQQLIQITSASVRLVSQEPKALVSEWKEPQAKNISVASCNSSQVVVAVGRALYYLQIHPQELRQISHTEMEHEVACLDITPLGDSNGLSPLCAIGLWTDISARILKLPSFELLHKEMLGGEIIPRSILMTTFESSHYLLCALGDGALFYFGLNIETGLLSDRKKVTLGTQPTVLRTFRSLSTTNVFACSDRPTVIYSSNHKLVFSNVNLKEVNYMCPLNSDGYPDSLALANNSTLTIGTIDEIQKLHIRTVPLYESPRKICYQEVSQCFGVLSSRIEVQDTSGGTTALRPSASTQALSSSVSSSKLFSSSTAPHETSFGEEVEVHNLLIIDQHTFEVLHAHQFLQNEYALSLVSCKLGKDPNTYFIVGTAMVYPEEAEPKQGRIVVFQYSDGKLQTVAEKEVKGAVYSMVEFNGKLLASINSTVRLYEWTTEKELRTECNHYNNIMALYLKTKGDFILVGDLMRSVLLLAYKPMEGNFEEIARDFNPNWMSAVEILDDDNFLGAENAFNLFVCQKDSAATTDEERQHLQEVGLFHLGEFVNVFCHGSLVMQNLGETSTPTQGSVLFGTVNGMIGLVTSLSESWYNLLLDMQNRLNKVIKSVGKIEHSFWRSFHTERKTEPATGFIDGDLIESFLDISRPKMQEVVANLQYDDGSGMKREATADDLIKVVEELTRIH
UniProt Q09028: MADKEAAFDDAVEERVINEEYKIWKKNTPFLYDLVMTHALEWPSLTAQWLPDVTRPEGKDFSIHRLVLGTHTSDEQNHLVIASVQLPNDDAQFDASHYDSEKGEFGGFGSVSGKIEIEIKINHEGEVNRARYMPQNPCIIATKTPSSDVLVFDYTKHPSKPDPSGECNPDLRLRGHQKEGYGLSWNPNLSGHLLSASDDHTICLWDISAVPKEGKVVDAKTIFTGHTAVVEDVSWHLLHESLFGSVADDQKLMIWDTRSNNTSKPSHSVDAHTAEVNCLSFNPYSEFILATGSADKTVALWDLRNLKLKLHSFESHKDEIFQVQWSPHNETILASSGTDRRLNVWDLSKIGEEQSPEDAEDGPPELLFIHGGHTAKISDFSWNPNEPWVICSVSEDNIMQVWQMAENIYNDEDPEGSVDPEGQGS
UniProt P67775: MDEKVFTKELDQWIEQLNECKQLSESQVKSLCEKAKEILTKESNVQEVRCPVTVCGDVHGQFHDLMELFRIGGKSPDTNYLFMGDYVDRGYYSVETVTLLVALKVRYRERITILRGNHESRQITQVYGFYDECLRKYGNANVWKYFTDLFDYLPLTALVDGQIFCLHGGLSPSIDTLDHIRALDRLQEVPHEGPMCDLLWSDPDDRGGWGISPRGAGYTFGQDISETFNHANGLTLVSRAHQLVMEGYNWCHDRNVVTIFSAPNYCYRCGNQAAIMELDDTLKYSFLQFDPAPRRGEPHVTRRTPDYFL
UniProt Q14997: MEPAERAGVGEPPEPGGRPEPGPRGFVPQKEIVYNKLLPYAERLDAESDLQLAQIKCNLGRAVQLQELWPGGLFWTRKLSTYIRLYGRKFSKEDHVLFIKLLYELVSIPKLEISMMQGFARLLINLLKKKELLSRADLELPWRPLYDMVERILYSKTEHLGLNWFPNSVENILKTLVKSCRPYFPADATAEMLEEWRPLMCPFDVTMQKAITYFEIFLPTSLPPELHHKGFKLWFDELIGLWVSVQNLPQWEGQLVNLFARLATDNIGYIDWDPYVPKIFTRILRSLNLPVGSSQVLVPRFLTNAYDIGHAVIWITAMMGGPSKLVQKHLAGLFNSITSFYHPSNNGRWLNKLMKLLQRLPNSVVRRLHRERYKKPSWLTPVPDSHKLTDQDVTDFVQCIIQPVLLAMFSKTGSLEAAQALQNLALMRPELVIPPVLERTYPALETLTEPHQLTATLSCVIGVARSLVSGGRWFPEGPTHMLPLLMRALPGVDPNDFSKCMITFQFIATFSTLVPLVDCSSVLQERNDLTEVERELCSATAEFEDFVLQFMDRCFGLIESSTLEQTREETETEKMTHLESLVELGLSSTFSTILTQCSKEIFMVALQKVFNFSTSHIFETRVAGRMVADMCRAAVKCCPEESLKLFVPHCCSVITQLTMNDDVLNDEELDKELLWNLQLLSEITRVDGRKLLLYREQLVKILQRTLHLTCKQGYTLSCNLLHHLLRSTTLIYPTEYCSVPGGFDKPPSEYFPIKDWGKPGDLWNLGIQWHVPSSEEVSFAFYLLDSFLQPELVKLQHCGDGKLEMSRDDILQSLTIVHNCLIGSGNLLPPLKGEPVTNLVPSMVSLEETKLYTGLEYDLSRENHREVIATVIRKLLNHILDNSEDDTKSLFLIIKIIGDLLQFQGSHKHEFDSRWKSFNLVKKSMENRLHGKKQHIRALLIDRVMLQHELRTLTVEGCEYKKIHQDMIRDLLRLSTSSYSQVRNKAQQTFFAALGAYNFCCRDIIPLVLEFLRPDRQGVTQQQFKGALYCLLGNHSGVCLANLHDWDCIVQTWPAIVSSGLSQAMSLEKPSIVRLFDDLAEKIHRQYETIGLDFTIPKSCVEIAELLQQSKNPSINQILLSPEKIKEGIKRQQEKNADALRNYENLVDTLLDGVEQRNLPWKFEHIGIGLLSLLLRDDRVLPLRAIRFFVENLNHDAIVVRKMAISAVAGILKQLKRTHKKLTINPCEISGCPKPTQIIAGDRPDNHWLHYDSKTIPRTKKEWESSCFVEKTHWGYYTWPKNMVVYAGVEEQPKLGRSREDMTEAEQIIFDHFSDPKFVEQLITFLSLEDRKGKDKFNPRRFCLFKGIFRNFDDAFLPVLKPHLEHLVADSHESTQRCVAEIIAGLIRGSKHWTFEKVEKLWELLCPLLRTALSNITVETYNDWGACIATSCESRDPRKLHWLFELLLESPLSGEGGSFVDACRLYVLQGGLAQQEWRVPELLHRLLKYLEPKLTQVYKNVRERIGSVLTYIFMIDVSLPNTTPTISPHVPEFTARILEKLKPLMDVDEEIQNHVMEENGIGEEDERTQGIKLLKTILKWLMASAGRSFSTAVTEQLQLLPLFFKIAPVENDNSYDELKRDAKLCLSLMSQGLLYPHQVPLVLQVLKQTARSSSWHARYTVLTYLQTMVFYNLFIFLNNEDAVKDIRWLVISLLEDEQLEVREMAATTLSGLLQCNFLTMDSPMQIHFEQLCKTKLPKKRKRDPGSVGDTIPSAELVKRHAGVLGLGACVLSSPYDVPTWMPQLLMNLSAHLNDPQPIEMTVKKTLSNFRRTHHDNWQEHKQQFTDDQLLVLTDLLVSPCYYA
UniProt Q06323: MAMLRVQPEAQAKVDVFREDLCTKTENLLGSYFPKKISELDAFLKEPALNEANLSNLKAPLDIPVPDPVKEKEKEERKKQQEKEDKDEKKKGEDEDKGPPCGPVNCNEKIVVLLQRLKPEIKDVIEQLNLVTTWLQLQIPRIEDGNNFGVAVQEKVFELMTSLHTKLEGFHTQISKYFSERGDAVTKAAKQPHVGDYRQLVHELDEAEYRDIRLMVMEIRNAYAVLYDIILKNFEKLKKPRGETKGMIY
UniProt Q13586, residues 23-685: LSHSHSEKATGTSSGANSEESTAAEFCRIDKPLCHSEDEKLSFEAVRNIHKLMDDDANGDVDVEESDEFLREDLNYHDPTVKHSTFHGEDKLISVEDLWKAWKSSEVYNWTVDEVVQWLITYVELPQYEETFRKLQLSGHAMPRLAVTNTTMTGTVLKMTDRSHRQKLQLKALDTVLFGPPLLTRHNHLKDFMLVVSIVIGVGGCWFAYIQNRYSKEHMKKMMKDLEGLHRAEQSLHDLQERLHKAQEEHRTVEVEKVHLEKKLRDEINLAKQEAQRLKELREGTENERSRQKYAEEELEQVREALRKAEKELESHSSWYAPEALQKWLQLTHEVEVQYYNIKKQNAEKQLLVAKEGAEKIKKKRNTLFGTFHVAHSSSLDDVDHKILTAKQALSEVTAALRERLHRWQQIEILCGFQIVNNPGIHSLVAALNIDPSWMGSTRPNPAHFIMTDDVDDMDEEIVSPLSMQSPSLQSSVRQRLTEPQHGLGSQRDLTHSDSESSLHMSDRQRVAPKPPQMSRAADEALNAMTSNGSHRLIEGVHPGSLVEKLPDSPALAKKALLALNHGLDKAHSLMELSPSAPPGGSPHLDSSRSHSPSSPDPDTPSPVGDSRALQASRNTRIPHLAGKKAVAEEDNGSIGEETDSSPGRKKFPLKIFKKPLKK

Assays:
Experiment in all cases: affinity purification with mass spectrometry
[1] = target: DCAF11 (IP from HepG2 cells) (human) (UniProt Q8TEB1)
[2] = target: DCAF8 (IP from HepG2 cells) (human) (UniProt Q5TAQ9)
[3] = target: cullin 4A (human (endogenous in human hepatocytes of chimeric mouse liver)) (UniProt Q13619)
[4] = target: cereblon (IP from HepG2 cells) (human) (UniProt Q96SW2)

**Q.** What does the source list for “DDB1 (HepG2 cells) (from UniProt Q16531 1-1140)”?
**A.** binding [1]: binds; binding [2]: binds

**Q.** RBBP4 (from UniProt Q09028 1-425) was tested. Which binding [3] did it give?
**A.** Its binding is “binds”.

**Q.** For Cereblon (from UniProt Q96SW2 1-442), which binding [3] is on record?
**A.** The binding was “binds”.

**Q.** Which results are given for “CUL4A (HepG2 cells) (from UniProt Q13619 1-759)”?
**A.** binding [1]: binds; binding [2]: binds; binding [4]: binds

**Q.** “Protein Phosphatase 2 Catalytic Subunit Alpha (from UniProt P67775 1-309)” was tested. Which binding [3] did it give?
**A.** Its binding is “binds”.

**Q.** “Proteasome Activator Subunit 4 (from UniProt Q14997 1-1843)” was tested. Which binding [3] did it give?
**A.** Its binding is “binds”.

**Q.** “Proteasome Activator Subunit 1 (from UniProt Q06323 1-249)” was tested. Which binding [3] did it give?
**A.** The binding was “binds”.

**Q.** “Stromal Interaction Molecule 1 (from UniProt Q13586 23-685)” was tested. Which binding [3] did it give?
**A.** Its binding is “binds”.

**Q.** With DCAF8 (from UniProt Q5TAQ9 1-597) as the substance, how does the binding [3] read?
**A.** Its binding is “binds”.

**Q.** Which binding [3] does the source give for “DEAD box protein 5 (from UniProt P17844 1-614)” here?
**A.** Its binding is “binds”.

These are yes or no findings as the source states them, for the method shown. Binding seen in cells or lysates may run through a third protein. Here binding means that the protein was enriched with, or labelled near, the bait; the list need not be complete.
